# Reference: the supplement of paper PMC6411743
# Chains of the proteins cited; added tags and fusions are not shown. Lines headed by an entry give the natural chain unless they say otherwise; changes in a name come on top.
# UniProt Q5TC82: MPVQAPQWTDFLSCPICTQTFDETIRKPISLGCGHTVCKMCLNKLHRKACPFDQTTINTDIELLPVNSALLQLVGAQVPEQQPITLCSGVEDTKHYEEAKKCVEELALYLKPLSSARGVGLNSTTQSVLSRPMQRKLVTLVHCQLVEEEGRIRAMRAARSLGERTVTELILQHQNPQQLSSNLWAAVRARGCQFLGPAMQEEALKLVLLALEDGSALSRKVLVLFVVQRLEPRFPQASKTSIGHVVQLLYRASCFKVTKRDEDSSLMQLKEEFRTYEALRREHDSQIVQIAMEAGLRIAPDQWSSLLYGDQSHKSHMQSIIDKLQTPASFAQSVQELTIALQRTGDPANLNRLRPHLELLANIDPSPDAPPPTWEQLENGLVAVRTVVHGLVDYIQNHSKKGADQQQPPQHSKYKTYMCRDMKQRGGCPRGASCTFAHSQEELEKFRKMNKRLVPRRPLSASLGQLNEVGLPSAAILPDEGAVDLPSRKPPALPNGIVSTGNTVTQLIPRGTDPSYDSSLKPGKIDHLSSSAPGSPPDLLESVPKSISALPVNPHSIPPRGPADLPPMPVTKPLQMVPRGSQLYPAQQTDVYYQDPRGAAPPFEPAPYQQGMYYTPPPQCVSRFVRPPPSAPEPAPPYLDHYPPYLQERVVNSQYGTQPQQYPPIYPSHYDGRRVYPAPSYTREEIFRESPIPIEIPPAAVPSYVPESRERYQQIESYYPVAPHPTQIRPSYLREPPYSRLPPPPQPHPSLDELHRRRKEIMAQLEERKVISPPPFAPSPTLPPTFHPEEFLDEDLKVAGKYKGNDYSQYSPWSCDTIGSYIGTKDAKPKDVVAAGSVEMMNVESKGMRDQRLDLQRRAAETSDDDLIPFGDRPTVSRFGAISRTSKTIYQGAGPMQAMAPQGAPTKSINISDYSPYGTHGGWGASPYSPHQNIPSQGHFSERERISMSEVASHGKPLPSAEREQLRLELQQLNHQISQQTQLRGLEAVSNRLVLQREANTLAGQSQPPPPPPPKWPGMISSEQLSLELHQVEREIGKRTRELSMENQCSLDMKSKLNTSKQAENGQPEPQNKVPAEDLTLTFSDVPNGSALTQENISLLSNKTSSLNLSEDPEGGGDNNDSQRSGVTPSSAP
# UniProt Q6IQ22: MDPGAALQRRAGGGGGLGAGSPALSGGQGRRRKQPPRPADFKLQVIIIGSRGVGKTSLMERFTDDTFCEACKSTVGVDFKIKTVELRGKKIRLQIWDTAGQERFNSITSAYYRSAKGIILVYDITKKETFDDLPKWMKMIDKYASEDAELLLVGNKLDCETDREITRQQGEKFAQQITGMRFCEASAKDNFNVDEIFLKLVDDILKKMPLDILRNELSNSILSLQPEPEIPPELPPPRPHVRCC
# UniProt Q68DH5: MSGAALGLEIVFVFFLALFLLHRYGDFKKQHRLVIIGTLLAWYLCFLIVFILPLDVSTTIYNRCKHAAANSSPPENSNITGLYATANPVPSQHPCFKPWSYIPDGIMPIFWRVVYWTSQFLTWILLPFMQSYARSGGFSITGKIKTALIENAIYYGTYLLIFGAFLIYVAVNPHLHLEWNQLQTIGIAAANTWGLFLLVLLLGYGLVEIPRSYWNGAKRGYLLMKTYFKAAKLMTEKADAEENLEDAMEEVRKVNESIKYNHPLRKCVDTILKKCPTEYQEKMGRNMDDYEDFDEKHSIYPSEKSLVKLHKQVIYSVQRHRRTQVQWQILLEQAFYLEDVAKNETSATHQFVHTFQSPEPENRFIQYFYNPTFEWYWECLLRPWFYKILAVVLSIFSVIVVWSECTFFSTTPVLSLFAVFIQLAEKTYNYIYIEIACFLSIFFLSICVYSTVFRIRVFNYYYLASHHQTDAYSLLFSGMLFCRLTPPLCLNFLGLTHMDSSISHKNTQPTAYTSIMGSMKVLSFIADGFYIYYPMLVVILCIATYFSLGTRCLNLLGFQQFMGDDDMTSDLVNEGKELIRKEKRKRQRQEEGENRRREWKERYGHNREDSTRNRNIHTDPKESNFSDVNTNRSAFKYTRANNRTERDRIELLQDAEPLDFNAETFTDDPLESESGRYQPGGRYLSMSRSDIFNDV
# UniProt Q5VST6: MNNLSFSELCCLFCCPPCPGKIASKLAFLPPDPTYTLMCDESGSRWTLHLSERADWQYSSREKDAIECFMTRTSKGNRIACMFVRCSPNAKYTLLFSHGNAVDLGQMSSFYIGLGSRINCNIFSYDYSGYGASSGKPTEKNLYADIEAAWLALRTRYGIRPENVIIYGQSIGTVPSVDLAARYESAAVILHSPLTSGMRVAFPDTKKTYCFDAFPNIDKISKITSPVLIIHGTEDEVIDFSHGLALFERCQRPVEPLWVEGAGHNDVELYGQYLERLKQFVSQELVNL
# UniProt Q6IA69: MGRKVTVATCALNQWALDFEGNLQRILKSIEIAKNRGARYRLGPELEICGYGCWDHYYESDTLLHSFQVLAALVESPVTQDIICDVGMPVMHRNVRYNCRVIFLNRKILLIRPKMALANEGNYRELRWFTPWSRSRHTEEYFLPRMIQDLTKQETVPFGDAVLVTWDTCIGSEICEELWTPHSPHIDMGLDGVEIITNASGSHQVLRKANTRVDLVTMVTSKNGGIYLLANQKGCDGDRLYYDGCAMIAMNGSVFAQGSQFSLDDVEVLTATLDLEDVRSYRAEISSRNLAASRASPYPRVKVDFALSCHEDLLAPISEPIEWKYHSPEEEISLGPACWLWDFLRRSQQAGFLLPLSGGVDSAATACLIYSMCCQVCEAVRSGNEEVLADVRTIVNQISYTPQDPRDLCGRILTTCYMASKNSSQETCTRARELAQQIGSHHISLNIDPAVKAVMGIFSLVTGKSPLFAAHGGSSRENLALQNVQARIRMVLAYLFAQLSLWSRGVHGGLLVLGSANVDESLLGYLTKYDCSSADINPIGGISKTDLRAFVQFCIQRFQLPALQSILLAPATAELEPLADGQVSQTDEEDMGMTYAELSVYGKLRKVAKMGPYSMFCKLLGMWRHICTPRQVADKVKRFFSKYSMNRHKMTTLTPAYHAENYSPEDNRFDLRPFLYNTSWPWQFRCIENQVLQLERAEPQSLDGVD
# UniProt Q5T2D3, whole entry: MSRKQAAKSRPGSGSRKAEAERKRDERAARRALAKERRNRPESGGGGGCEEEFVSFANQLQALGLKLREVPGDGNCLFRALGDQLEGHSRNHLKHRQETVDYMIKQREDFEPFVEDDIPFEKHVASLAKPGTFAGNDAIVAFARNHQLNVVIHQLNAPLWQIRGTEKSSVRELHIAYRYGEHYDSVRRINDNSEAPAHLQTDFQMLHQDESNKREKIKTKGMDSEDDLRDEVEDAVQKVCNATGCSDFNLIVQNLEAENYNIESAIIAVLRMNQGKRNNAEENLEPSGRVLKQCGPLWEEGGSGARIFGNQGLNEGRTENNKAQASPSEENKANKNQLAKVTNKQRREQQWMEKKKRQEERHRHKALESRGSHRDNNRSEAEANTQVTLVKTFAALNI
# UniProt Q53EL6: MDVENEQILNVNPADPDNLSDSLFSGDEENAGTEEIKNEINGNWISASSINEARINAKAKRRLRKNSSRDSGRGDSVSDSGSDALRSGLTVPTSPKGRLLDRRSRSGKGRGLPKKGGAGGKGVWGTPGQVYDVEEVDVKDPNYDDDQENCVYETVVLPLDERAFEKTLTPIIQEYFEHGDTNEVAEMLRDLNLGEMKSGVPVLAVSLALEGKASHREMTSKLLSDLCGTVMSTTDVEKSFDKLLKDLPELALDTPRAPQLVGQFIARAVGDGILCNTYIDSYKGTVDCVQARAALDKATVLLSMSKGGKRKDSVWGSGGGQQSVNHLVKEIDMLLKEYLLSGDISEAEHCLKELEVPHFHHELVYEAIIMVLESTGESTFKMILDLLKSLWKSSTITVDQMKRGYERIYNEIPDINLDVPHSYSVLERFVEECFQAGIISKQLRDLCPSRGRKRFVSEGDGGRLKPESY
# UniProt Q6P087: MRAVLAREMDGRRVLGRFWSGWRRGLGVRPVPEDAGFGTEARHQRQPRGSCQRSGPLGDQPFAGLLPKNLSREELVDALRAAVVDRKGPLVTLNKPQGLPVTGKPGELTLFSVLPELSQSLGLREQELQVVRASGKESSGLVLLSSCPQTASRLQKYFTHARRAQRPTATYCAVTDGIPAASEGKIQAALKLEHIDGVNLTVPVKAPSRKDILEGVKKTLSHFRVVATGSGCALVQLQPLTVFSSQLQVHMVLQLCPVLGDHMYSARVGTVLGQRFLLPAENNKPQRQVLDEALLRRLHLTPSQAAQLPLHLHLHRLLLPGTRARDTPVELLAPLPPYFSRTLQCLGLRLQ
# UniProt Q68EM7: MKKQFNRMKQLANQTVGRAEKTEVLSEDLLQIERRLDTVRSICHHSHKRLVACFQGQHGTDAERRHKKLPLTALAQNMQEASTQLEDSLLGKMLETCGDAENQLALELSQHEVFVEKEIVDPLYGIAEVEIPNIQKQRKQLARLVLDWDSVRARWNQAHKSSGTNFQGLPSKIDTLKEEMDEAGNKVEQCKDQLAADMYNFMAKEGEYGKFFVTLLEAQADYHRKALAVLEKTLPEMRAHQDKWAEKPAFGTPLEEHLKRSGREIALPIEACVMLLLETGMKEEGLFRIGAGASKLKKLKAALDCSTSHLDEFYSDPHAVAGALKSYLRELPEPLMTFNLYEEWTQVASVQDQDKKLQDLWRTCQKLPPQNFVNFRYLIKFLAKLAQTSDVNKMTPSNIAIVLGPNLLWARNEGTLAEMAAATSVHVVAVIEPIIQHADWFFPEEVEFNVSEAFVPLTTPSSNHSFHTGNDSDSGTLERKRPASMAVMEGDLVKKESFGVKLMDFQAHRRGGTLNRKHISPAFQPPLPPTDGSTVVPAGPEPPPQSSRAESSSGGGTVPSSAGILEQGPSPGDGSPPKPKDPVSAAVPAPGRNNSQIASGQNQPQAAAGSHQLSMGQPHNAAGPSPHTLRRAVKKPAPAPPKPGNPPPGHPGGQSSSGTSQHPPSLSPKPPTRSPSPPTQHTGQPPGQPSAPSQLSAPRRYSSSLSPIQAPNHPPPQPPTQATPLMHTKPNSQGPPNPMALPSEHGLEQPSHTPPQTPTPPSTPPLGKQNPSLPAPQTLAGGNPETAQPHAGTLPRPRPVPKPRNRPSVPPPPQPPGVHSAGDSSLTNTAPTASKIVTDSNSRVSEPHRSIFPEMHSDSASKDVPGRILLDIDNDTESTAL
# UniProt Q6GMV3: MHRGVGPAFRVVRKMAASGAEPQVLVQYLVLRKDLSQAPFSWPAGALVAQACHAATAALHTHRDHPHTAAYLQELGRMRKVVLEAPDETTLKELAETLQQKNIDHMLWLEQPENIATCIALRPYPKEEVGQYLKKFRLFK
# UniProt Q8TAK5: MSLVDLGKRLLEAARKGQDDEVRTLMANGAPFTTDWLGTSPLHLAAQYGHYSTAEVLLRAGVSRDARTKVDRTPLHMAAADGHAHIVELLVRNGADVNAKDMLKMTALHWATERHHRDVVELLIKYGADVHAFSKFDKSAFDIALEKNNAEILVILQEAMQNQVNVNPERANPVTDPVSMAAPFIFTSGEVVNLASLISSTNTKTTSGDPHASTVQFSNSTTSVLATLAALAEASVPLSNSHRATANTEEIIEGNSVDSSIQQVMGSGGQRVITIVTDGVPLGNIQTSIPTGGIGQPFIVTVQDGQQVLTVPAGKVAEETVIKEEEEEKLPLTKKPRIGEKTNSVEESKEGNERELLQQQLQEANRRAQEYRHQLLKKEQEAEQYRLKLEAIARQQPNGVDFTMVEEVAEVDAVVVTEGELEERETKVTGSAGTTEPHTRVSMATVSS
# UniProt Q5VV52: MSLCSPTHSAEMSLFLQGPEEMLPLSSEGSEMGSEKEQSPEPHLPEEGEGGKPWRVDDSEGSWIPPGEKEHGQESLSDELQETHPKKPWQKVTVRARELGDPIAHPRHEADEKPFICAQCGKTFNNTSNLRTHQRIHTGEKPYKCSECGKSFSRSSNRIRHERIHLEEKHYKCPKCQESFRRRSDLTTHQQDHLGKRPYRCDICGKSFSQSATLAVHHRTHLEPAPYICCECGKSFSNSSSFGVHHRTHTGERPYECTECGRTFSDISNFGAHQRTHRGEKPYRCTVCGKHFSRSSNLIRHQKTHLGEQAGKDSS
# UniProt Q6DKJ4: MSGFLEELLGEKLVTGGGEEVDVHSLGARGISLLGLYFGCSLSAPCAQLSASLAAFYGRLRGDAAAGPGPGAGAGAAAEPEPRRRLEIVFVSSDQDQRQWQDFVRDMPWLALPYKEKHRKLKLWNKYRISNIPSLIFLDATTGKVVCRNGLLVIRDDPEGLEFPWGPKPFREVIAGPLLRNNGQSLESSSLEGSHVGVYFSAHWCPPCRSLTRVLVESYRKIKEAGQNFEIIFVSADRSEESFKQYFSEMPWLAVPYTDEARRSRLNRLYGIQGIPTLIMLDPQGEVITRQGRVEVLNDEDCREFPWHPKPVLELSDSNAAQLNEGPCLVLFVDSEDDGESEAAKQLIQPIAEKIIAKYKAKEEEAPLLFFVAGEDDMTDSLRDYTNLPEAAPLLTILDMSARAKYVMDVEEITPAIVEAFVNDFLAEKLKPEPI
# ± gives the standard deviation of the averaged measurements. This is a selection; strong and weak results do not stand in their true shares. Most values lie at the level of the controls, where differences are scatter.
# Compound: Nc1ncnc2c1ncn2[C@@H]1O[C@H](COP(=O)(O)OP(=O)(O)OP(=O)(O)O)[C@@H](O)[C@H]1O [adenosine triphosphate]
# Assay: NP40-soluble protein abundance relative to vehicle (solubility fold change) (ratio); higher = more soluble protein in presence of ATP
# Conditions: concentration: 0.1mM
# Method in brief: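 Values are fold changes against the detergent-processed vehicle, based on vsn-normalised intensities. Jurkat crude lysate was treated at eight concentrations from 0.1 to 10 mM (10 min at room temperature, then 3 min at 37 °C), solubilised with 0.8% NP40 and benzonase, ultracentrifuged and analysed by TMT-labelled LC-MS/MS over three independent experiments.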
row,Target,NP40-soluble protein abundance
1,UniProt Q5FWF5,1.11 ± 0.11
2,UniProt Q5TC82 and related entries,1.06 ± 0.061
3,UniProt Q5T2E6 and related entries,1.03 ± 0.054
4,UniProt Q5VW32,0.992 ± 0.043
5,RAB12 (UniProt Q6IQ22),1.07 ± 0.044
6,RPRD2 (UniProt Q5VT52),1.02 ± 0.036
7,UniProt Q5TCQ9 and related entries,0.957 ± 0.17
8,LMBRD2 (UniProt Q68DH5),1.02 ± 0.098
9,UniProt Q5VST6,0.937 ± 0.036
10,NADSYN1 (UniProt Q6IA69),1.02 ± 0.06
11,UniProt Q53H47 and related entries,1.01 ± 0.026
12,UniProt Q5T2D3,1.1079 ± 0.00099
13,PMF1 (UniProt Q6P1K2),0.996 ± 0.042
14,UniProt Q5VTB9 and related entries,0.958 ± 0.021
15,UniProt Q53EL6 and related entries,0.974 ± 0.061
16,UniProt Q5JTD0 and related entries,0.986 ± 0.026
17,UniProt Q68D10 and related entries,0.978 ± 0.038
18,ERAP2 (UniProt Q6P179),0.9555 ± 0.0031
19,UniProt Q6P4R8 and related entries,0.98 ± 0.086

# 3 successive records from above, for reference:
row,Target,NP40-soluble protein abundance
3,UniProt Q5T2E6 and related entries,1.03 ± 0.054
4,UniProt Q5VW32,0.992 ± 0.043
5,RAB12 (UniProt Q6IQ22),1.07 ± 0.044

# Following part

row,Target,NP40-soluble protein abundance
1,UniProt Q6P087 and related entries,0.92 ± 0.099
2,UniProt Q6DHV7-2|Q6DHV7 and related entries,1.03 ± 0.022
3,UniProt Q5JSH3 and related entries,0.99 ± 0.02
4,UniProt Q6P1J9,1.01 ± 0.047
5,ARHGAP17 (UniProt Q68EM7),1.02 ± 0.032
6,RCSD1 (UniProt Q6JBY9),0.888 ± 0.06
7,UniProt Q68CZ6,0.983 ± 0.021
8,UniProt Q5JS54 and related entries,0.948 ± 0.06
9,UniProt Q5T3I0 and related entries,1.06 ± 0.036
10,UniProt Q6GMV3,0.933 ± 0.11
11,Q5SZG2 and related entries (UniProt Q8TAK5),0.949 ± 0.011
12,Q5VV50 and related entries (UniProt Q5VV52),0.966 ± 0.064
13,NXN (UniProt Q6DKJ4),0.9 ± 0.12
14,UniProt Q53HC9 and related entries,1 ± 0.085
15,UniProt Q6P2P2,1.07 ± 0.077
16,UniProt Q69YQ0 and related entries,0.94 ± 0.12
17,HS1BP3 (UniProt Q53T59),1.08 ± 0.022
18,C19orf54 (UniProt Q5BKX5),1 ± 0.081
